{"sequences": {"note": "Protein sequences, listed by entry. Tags and fused reporters are not part of them. Lines headed by an entry give the natural chain unless they say otherwise; changes in a name come on top.", "UniProt P69720": "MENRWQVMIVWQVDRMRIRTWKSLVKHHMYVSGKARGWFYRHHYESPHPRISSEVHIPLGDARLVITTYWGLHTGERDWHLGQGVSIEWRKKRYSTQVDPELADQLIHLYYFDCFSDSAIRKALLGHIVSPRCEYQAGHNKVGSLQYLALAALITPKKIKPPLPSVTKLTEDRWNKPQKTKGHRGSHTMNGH", "UniProt P69721": "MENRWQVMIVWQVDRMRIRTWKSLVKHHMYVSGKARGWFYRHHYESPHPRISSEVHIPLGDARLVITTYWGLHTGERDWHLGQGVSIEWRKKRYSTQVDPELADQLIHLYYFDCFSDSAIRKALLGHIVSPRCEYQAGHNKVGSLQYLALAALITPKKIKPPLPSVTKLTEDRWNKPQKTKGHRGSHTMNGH", "UniProt P69722": "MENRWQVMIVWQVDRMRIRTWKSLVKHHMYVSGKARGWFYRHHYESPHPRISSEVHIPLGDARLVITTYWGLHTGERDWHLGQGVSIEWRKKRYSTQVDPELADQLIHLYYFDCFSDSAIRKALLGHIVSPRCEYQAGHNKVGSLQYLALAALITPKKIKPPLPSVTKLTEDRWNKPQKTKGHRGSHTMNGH", "UniProt P69723": "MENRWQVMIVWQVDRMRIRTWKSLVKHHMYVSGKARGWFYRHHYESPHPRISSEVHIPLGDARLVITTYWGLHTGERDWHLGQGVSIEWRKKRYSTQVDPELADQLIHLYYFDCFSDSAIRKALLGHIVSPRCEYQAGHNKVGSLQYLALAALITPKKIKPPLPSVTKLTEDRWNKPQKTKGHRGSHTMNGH", "UniProt Q9HC16": "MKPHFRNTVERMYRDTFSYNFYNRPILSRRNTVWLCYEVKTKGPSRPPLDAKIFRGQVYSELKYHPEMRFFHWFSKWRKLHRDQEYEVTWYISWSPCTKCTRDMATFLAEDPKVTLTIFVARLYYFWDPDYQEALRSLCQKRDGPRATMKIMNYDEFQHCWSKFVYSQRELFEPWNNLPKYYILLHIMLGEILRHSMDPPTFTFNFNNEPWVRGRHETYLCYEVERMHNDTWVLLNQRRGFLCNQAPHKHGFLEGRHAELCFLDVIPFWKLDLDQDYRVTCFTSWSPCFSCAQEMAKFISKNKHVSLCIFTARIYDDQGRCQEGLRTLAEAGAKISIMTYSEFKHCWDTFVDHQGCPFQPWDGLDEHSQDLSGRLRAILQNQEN"}, "source": "PubChem BioAssay AID1117319", "about": "(Southern Research Institute, 2015)", "note": "Several values for one entry are separate records, joined by “and”; a condition that tells them apart may be missing. Equal entries are not always repeated. Hit rate of the full screen: of about 260,000 compounds, about 1,500 (0.58%) were called active. Inconclusive results, whose numbers are uncertain, are shown with a selection of clear calls.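 The calls were made as follows: active = inhibition above a set limit at one or more doses, reproduced on every date tested; inconclusive = results disagree between test dates, or hit never tested in dose response; inactive = the rest.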", "data": [{"target": "Virion infectivity factor (Human immunodeficiency virus type 1 group M subtype B (isolate BH10)) + Virion infectivity factor (Human immunodeficiency virus type 1 group M subtype B (isolate BRU/LAI)) + Virion infectivity factor (Human immunodeficiency virus type 1 group M subtype B (isolate PCV12)) + Virion infectivity factor (Human immunodeficiency virus type 1 group M subtype B (isolate HXB2)) + DNA dC->dU-editing enzyme APOBEC-3G (Homo sapiens) (UniProt P69720+P69721+P69722+P69723+Q9HC16)", "test": "inhibitors of Vif binding to APOBEC3G peptide, primary screen, biochemical, TR-FRET, GST-Vif 1-94, biotin-A3G peptide, dose response retest (AID 1117319);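 also: Vif residues 1-94 fused to GST binding biotinylated APOBEC3G peptide 110-148; 0% = full assay without inhibitor and 100% = GST in place of GST-Vif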", "conditions": "active compounds read high", "values": [{"smiles": "Cc1ccc(C(=O)NNC(=O)C2CCCN(c3ncccn3)C2)cc1", "note": "(stereo not drawn)", "inhibition": "inconclusive: 50.8%"}, {"smiles": "CCCc1nn2c(=O)c(C(c3ccc(C)cc3)c3c(O)nc4sc(CCC)nn4c3=O)c(O)nc2s1", "inhibition": "inconclusive: 41.1%"}, {"smiles": "CCN1CCCC1CN(Cc1cc2ccc(C)c(C)c2[nH]c1=O)C(=O)Nc1ccccc1OC", "note": "(stereo not drawn)", "inhibition": "inconclusive: 42.3%"}, {"smiles": "COc1ccc(-n2nc(C(=O)NCC(=O)NCCCN3CC(C)CC(C)C3)c3ccccc3c2=O)cc1", "note": "(stereo not drawn)", "inhibition": "inconclusive: 35.8%"}, {"smiles": "COc1ccc(N2CCN(CCCNC(=O)Cn3c(=O)c4cccn4c4ccccc43)CC2)cc1", "inhibition": "inconclusive: 49.8%"}, {"smiles": "Cc1cc(/C=N/NC(=O)c2cccc([N+](=O)[O-])c2)c(C)n1-c1ccccc1", "inhibition": "inconclusive: 58.5%"}, {"smiles": "Cc1ccc(C)c(NC(=S)N/N=C2\\CCc3ccccc32)c1", "inhibition": "inconclusive: 33.9%"}, {"smiles": "O=C(Nc1cccc(F)c1)c1ccco1", "inhibition": "inconclusive: 40.8%"}, {"smiles": "COc1ccc(C/C(N)=N/OC(=O)Cc2ccccc2)cc1", "inhibition": "inconclusive: 34.5%"}, {"smiles": "O=C1N=c2ccccc2=C1c1[nH]c(=S)[nH]c1O", "inhibition": "inconclusive: 53%"}, {"smiles": "CCC(C)NC(=O)C1CCCN1S(=O)(=O)c1ccc(Cl)cc1", "note": "(stereo not drawn)", "inhibition": "inconclusive: 50.5%"}, {"smiles": "O=C(NCC(F)(F)F)Nc1cccnc1", "inhibition": "inconclusive: 36.7%"}, {"smiles": "CS(=O)(=O)c1ncc(Cl)c(C(=O)Nc2ccc(N3CCOCC3)cc2)n1", "inhibition": "inconclusive: 55.6%"}, {"smiles": "CCCS(=O)(=O)c1nc(S(=O)(=O)c2ccc(C)cc2)c(N2CCCC2)s1", "inhibition": "inactive: -10.9%"}, {"smiles": "COC(=O)c1ccc(NC(=O)Nc2ccc(OC)cc2)cc1", "inhibition": "inconclusive: 43.3%"}, {"smiles": "CCOC(CNC(=O)C1CCN(S(=O)(=O)c2ccc3nc4c(c(C(=O)O)c3c2)CCCCC4)CC1)OCC", "inhibition": "inconclusive: 45.5%"}, {"smiles": "c1cc(C2CCCCC2)ccc1Oc1nc(N2CCOCC2)nc(N2CCOCC2)n1", "inhibition": "inconclusive: 46%"}, {"smiles": "CN1CCN(c2ccc(C(=O)c3ccc(F)cc3)cc2)CC1", "inhibition": "inactive: -7.54%"}, {"smiles": "COC(=O)C(Cc1ccccc1)NC(=O)CNC(=O)c1ccc(Br)o1", "note": "(stereo not drawn)", "inhibition": "inconclusive: 49.9%"}, {"smiles": "Brc1ccc(-c2cn3nc4c(nc3n2)CCCC4)cc1", "inhibition": "inconclusive: 40.2%"}, {"smiles": "C/C(CC(=O)Nc1cc(Cl)ccc1Cl)=N\\NC(N)=S", "inhibition": "inconclusive: 54.2%"}, {"smiles": "O=C1CCCC/C1=C\\Nc1ccc(C(=O)O)c(O)c1", "inhibition": "inconclusive: 52.2%"}, {"smiles": "COc1ccccc1N1CCN(C(=O)CN(Cc2ccc(Cl)cc2)S(C)(=O)=O)CC1", "inhibition": "inconclusive: 38.6%"}, {"smiles": "CCc1nnc(NC(=O)CSc2nnc(-c3ccoc3C)n2-c2ccc(C)cc2)s1", "inhibition": "inconclusive: 33.5%"}, {"smiles": "N#C/C(=C\\c1coc2ccc(O)cc2c1=O)C(=O)Nc1nc2ccccc2s1", "inhibition": "inconclusive: 44.1%"}, {"smiles": "O=C(CN1C(=O)c2ccccc2S1(=O)=O)NCCSc1ccccc1", "inhibition": "inconclusive: 33.1%"}, {"smiles": "CCC(c1nnnn1Cc1ccccc1)N(Cc1ccco1)Cc1cc2cc(OC)ccc2[nH]c1=O", "note": "(stereo not drawn)", "inhibition": "inactive: 6.8% and inactive: 6.79%"}, {"smiles": "Cc1ccc(-c2nc3ccccc3o2)cc1NC(=S)NC(=O)/C=C/c1ccco1", "inhibition": "inconclusive: 35.6%"}, {"smiles": "CC(C)(Oc1ccc(-c2ccco2)cc1)C(=O)O", "inhibition": "inactive: 3.13%"}, {"smiles": "O=C(OCC(=O)c1ccc[nH]1)c1ccccc1", "inhibition": "inconclusive: 46.5%"}, {"smiles": "O=C1C2C(C(=O)N1/N=C/c1cc([N+](=O)[O-])c(O)cc1O)C1C=CC2C12CC2", "note": "(stereo not drawn)", "inhibition": "inconclusive: 61.2%"}, {"smiles": "O=c1[nH]c2cc3c(cc2cc1CN(Cc1cccs1)Cc1nnnn1Cc1ccco1)OCCO3", "inhibition": "inconclusive: 36.6%"}, {"smiles": "CC(O)[C@H](NC(=O)C1(c2ccccc2)CCN(C(=O)OC(C)(C)C)CC1)C(=O)O", "note": "(stereo partly drawn)", "inhibition": "inconclusive: 43.5%"}, {"smiles": "Cc1cccc(Nc2nc(N)nc(CC(=O)CSc3ccc(Cl)cc3)n2)c1", "inhibition": "inconclusive: 53.8%"}, {"smiles": "CCc1nc2ccccc2c(C(=O)OCC(=O)NC2CCCC2)c1C", "inhibition": "inactive: 4.22%"}, {"smiles": "Cc1cc(C)nc(SCc2cn3c(C)cccc3n2)n1", "inhibition": "inconclusive: 49.2%"}, {"smiles": "CC(=O)Nc1ccc(/C(C)=N/NS(=O)(=O)c2ccccc2)cc1", "inhibition": "inactive: -13.2%"}, {"smiles": "O=C(NCC(=O)N(CC1CCCO1)C(C(=O)NC1CCCCC1)c1ccccc1)c1cccs1", "note": "(stereo not drawn)", "inhibition": "inconclusive: 59.8%"}, {"smiles": "CCc1cc2cc(C)ccc2nc1SCC(=O)N1CCN(C(=O)c2ccco2)CC1", "inhibition": "inactive: 3.37%"}, {"smiles": "CCOc1ncccc1C(=O)Nc1ccc(-c2cn3ccsc3n2)cc1", "inhibition": "inconclusive: 39.4%"}, {"smiles": "Cc1ccc(C(=O)COc2nc(C)nc3ccccc23)cc1", "inhibition": "inconclusive: 37.1%"}, {"smiles": "Cc1cc(C)cc(N(CC(=O)N/N=C/c2ccncc2)S(=O)(=O)c2ccccc2)c1", "inhibition": "inconclusive: 38.9%"}, {"smiles": "O=C(O)c1ccc(NCc2cccnc2)cc1", "inhibition": "inconclusive: 57.6%"}]}]}
